The numbers were not newly measured in PMC10975434, “Cannabinoid-Induced Inhibition of Morphine Glucuronidation and the Potential for In Vivo Drug–Drug Interactions” (Pharmaceutics, 2024), which cites them from elsewhere.

For this data set, the system named is UGT2B7. To be noted: read-out: KM for UGT2B7 against morphine; cited from earlier work.

Take `CN1CC[C@]23c4c5ccc(O)c4O[C@H]2[C@@H](O)C=C[C@H]3[C@H]1C5` [morphine, Morphine]: the Km is 275 µM.
